From the supplement of paper PMC11006884 come the findings set out here.

Sequences of proteins named here, by UniProt entry; tags and fusion partners are left off. A change or cut given only in a name is not applied to a line headed by its entry.
UniProt O00148, whole entry, looked up: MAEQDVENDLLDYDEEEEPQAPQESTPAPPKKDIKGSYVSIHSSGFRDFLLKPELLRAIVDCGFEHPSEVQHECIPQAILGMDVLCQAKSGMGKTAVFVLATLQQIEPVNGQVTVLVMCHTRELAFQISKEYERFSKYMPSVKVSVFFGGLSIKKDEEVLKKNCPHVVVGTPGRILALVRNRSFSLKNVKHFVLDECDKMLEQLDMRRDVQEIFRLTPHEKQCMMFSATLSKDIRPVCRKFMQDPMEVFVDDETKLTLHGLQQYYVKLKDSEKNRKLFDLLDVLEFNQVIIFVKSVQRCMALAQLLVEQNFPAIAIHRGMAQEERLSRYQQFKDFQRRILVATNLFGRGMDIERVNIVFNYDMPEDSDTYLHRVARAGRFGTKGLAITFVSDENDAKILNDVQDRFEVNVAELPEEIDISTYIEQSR
UniProt O15446, whole entry, looked up: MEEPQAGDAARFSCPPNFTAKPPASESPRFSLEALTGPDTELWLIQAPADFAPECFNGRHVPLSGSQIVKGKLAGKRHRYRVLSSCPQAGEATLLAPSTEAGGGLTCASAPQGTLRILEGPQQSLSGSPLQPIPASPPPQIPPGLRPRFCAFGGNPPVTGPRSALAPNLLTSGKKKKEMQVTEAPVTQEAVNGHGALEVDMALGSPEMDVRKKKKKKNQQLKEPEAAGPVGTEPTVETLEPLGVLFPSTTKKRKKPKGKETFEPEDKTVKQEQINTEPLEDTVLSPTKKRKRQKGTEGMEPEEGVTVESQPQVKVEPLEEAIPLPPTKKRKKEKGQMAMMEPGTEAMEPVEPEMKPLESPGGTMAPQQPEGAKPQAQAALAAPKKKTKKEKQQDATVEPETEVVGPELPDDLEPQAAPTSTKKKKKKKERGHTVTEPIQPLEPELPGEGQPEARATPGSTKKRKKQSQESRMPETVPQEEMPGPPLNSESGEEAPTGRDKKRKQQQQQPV
UniProt O00487, whole entry, looked up: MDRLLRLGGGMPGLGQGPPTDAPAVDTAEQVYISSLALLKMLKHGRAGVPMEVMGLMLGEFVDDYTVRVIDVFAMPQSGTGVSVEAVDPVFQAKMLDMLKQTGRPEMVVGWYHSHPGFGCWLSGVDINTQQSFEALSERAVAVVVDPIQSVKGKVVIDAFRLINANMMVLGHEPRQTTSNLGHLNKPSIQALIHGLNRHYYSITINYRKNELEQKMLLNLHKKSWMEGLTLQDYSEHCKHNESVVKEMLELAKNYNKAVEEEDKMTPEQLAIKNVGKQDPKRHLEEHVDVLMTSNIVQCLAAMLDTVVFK
UniProt O14654: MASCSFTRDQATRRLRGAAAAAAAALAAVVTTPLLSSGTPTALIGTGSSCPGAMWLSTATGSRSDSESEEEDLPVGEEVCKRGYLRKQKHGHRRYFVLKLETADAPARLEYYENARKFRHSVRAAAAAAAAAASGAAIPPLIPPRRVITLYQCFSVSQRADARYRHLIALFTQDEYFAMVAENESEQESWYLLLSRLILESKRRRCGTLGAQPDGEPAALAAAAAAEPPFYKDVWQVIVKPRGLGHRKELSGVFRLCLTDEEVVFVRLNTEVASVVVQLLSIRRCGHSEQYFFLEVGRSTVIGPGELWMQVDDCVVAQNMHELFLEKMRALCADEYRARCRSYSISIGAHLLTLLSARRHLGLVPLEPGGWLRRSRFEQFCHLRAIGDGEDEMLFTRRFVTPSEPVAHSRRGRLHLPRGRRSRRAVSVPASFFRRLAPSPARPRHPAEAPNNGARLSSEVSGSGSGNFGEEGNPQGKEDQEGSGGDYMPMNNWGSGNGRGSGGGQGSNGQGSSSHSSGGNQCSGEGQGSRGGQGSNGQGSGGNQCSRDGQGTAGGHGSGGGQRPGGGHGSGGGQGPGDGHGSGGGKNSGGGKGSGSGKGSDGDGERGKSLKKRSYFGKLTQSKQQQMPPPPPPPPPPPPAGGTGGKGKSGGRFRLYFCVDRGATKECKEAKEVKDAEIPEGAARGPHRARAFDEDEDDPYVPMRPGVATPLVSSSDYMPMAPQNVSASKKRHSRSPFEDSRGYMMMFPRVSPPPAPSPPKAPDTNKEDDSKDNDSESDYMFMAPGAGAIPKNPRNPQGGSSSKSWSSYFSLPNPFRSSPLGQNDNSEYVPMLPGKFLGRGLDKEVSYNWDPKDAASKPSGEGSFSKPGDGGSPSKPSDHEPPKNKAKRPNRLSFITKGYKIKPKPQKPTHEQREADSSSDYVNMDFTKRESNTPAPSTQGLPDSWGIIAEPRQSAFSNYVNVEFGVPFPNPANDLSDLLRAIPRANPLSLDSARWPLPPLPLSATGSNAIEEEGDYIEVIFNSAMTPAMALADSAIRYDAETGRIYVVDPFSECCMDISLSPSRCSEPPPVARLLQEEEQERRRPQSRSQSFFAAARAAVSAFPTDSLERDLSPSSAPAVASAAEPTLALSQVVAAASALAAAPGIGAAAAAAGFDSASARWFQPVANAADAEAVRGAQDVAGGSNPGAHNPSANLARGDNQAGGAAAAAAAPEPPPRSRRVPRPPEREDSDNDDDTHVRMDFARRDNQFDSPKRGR
UniProt O00762: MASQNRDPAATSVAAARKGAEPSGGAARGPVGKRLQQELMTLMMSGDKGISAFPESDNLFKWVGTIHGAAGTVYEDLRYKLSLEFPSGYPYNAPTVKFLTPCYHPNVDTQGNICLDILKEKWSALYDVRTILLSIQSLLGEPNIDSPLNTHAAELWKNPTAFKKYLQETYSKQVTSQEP
UniProt O14497, whole entry, looked up: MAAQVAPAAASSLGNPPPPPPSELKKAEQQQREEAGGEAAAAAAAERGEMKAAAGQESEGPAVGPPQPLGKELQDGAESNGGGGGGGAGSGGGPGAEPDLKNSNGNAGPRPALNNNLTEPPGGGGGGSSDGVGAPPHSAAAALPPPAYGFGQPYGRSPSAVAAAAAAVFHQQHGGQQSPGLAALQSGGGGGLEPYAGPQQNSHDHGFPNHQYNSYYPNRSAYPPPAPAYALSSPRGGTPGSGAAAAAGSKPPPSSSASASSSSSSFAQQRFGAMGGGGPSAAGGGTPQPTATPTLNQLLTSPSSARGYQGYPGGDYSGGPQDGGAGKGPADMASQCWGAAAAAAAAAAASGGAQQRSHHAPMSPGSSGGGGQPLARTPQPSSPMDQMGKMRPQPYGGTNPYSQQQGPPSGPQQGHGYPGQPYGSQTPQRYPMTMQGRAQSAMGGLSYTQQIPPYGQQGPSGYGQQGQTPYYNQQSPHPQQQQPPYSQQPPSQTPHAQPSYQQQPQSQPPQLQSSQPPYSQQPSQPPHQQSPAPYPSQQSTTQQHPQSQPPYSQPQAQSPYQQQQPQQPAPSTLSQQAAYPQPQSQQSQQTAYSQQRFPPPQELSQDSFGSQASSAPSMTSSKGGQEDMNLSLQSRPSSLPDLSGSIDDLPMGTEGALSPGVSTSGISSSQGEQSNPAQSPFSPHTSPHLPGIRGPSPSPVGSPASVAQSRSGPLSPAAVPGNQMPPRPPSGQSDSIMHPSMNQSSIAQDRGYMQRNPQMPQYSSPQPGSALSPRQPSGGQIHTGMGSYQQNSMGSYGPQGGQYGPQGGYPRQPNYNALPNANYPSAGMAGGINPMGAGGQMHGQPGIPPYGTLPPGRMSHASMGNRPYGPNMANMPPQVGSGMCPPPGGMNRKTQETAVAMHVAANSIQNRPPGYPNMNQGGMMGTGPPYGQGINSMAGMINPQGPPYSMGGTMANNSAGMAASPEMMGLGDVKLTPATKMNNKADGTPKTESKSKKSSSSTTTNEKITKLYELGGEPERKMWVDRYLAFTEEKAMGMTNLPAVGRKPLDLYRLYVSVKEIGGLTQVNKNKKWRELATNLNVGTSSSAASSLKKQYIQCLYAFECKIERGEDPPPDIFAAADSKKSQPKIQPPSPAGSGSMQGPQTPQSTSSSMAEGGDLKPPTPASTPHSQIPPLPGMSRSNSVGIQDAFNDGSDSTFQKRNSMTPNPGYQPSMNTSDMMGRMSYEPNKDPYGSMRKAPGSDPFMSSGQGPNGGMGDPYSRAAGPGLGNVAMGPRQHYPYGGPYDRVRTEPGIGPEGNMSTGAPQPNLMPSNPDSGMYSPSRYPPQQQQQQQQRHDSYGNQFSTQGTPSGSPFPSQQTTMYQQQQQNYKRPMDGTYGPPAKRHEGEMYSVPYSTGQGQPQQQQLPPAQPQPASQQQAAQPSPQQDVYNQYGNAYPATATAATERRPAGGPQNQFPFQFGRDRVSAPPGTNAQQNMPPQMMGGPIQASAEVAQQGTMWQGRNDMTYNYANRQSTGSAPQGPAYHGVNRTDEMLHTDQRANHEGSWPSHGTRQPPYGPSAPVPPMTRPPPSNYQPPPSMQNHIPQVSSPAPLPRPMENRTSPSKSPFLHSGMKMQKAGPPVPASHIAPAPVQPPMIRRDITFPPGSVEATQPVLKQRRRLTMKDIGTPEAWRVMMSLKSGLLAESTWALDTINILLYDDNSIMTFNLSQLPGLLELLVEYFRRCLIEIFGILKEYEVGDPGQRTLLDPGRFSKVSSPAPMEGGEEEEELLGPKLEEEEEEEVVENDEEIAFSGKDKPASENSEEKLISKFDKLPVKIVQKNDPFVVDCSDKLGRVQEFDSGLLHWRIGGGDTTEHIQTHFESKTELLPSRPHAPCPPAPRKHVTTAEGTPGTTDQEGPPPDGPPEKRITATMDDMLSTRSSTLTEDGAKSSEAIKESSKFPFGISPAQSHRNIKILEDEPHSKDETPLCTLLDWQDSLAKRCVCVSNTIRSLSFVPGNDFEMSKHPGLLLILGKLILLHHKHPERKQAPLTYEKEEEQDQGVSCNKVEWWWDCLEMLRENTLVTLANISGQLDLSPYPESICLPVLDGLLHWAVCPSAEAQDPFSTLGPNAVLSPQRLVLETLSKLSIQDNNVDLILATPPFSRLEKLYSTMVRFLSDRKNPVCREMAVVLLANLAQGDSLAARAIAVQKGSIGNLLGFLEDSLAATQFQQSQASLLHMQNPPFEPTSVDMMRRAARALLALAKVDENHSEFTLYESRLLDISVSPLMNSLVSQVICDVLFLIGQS
UniProt A8MW92: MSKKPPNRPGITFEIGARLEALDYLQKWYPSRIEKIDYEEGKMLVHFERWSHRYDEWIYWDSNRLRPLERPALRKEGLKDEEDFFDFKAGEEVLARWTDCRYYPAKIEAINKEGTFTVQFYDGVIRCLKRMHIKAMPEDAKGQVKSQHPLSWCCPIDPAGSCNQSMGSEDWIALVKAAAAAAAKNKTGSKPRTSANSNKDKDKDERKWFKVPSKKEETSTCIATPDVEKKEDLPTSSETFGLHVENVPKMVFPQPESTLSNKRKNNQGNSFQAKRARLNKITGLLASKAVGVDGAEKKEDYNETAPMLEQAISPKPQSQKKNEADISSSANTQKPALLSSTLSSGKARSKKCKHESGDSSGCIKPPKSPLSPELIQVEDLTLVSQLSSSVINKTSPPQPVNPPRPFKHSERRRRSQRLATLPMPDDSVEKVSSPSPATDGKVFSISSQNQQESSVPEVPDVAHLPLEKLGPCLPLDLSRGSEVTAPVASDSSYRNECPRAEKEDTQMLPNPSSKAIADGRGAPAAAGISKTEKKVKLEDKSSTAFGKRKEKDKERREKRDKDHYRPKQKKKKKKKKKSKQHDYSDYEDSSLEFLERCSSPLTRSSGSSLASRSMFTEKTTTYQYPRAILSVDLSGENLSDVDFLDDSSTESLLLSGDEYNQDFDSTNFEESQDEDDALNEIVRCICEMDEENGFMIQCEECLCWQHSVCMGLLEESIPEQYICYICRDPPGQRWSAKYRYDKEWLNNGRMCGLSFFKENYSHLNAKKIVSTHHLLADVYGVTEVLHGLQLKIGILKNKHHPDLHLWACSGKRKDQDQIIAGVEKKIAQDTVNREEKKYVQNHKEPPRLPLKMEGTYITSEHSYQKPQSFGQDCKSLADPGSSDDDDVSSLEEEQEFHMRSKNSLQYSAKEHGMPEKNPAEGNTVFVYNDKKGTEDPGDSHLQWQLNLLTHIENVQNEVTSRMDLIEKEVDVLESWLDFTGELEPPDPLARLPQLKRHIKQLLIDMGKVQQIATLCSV
UniProt O15371, whole entry, looked up: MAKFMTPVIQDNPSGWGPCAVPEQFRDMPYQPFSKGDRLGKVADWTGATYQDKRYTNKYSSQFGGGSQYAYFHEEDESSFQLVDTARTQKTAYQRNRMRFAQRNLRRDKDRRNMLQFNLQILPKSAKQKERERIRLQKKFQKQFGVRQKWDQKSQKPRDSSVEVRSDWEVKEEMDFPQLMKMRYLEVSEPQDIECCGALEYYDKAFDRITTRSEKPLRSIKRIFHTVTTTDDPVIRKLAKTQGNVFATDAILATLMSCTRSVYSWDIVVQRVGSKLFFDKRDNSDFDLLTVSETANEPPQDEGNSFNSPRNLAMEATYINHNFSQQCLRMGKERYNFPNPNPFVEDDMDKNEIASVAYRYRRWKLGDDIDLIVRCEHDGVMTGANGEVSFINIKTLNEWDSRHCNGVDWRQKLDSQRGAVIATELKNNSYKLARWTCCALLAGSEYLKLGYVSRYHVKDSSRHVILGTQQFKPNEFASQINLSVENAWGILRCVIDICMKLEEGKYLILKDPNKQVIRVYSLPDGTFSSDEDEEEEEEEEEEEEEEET

Only a part is listed here, and it is no random draw.

Compound in this test: COC(=O)C#Cc1ccccc1 [methyl 3-phenylpropiolate]
The test can be described thus: log2 ratio of iodoacetamide-alkyne labeling of the cysteine site, DMSO over compound (competition); higher = stronger covalent engagement of the cysteine by the compound, active = 1 or more. The settings on record: 500 µM; treatment time 1 h; system: HEK293T cell lysate. A digest of the protocol:
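After 1 h at ambient temperature with vehicle or electrophile (500 µM), HEK293T lysate (2 mg/mL) was labelled for 1 h with iodoacetamide alkyne and clicked to sCIP-TMT reagents. Pooled samples were trypsin-digested overnight at 37 °C, streptavidin-enriched, acid-eluted and analysed by Orbitrap Eclipse LC-MS/MS with FAIMS, then quantified in FragPipe over three replicates with duplicate channels. A cysteine's log2 competition ratio is its mean control-channel over mean compound-channel reporter intensity. Cysteines quantified in only one replicate were not included.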
Consider UniProt O00148_C164, for which the “log2 ratio of iodoacetamide-alkyne labeling” value (shortened to “log2 ratio”) is inactive: 0.0125.
Consider CD3EAP C86 (UniProt O15446), for which the “log2 ratio” value was inactive: 0.236.
Consider UniProt O00487_C299, for which the “log2 ratio” value was inactive: -0.258.
PFAS C108 (UniProt O15067): the “log2 ratio” value is inactive: 0.0713.
The result for XPO1 C327 (UniProt O14980) reads inactive: -0.125.
The value for IRS4 C257 (UniProt O14654) was inactive: -0.26.
With UBE2C C114 (UniProt O00762), the “log2 ratio” value was inactive: 0.321.
The value for DYNC1LI2 C191 (UniProt O43237) was inactive: 0.441.
In the case of PFAS C871 (UniProt O15067), the “log2 ratio” value was inactive: 0.199.
The result for SPTBN2 C607 (UniProt O15020) reads inactive: 0.479; that for UniProt O00567_C112, inactive: 0.726; that for SPTBN2 C2043 (UniProt O15020), inactive: 0.128.
Take ARID1A C1968 (UniProt O14497): the “log2 ratio” value is inactive: 0.5.
Take CLIC1 C59 (UniProt O00299): the “log2 ratio” value was inactive: 0.138.
The result for IRS4 C206 (UniProt O14654) reads inactive: 0.518.
As for POM121C C438 (UniProt A8CG34), the “log2 ratio” value was active: 1.04.
The value for ZSWIM8 C125 (UniProt A7E2V4) was inactive: 0.374; that for UniProt O00567_C384 was inactive: -0.084; that for UniProt A8MW92_C472 was inactive: 0.361.
The value for POLRMT C765 (UniProt O00411) was inactive: 0.547.
For EIF3D C437 (UniProt O15371), the “log2 ratio” value is inactive: -0.116.
For the target IRS4 C1055 (UniProt O14654), the “log2 ratio” value was inactive: 0.134.
